We go through 26 compounds from the supplement of paper PMC10735217.

The test system of this assay is HEK293A TEAD-LUC reporter. The assay is described as follows: TEAD-luciferase reporter activity (YAP activation), robust Z score vs plate; higher = stronger YAP/TEAD activation. As to conditions: 24 h. (In general: A reporter such as luciferase makes a cellular process visible.)

Structures are written as SMILES. Where a name gives a salt, the structure may show the parent alone. The list shows a part of the results. Single values are uncertain here, since repeats match poorly.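 Human kidney-derived cells stably carry a construct in which eight TEAD-binding elements drive luciferase, measured by luminescence in a drug-repurposing library screen. A hit is any compound whose signal exceeds the plate mean by more than five robust Z scores.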

As to `O=C(CCCN1CC=C(n2c(O)nc3ccccc32)CC1)c1ccc(F)cc1` [droperidol, Anesta], the TEAD-luciferase reporter activity (compound concentration: 2 uM) was inactive: -1.51.
As for `CC1=CCN(C(=O)[C@H](Cc2ccc(C(=N)N)cc2)NS(=O)(=O)c2ccc3c(c2)CN(C)CC3)[C@@H](C(=O)O)C1`, the TEAD-luciferase reporter activity by setting is: (compound concentration: 200 nM) inactive: -0.729; (compound concentration: 2 uM) inactive: -2.39; (compound concentration: 10 uM) inactive: -1.4.
For `CC[C@H](Nc1ncnc2[nH]cnc12)c1oc2ccccc2c(=O)c1-c1cccc(F)c1` [Tenalisib] the same measures were inactive: -1.31, inactive: -1.07 and inactive: 0.389.
For `O=C(CO)[C@@H]1CCCN1C(=O)[C@@H]1CCCN1C(=O)NCc1ccccc1` the same measures were inactive: -1.25, inactive: 0.231 and inactive: 2.18.
In the case of `CS(=O)(=O)c1ccc([C@@H](O)[C@@H](CF)NC(=O)C(Cl)Cl)cc1`, the TEAD-luciferase reporter activity is inactive: 0.304 (compound concentration: 200 nM) and inactive: -0.923 (compound concentration: 10 uM).
For the compound `CS(=O)(=O)c1ccc([C@@H](O)[C@@H](CF)NC(=O)C(Cl)Cl)cc1` [Florfenicol], the TEAD-luciferase reporter activity (compound concentration: 2 uM) is inactive: -0.852.
Take `c1coc(CNc2ncnc3[nH]cnc23)c1` [Kinetin]: the TEAD-luciferase reporter activity is inactive: -1.21 (compound concentration: 200 nM), inactive: -0.0606 (compound concentration: 2 uM) and inactive: -0.647 (compound concentration: 10 uM).
Taken in the same sequence, the figures for `CCCCCCCCCC(=O)OCCN1CCN(CC/C=C2\c3ccccc3Sc3ccc(C(F)(F)F)cc32)CC1` were inactive: 0.206, inactive: -0.633 and inactive: -0.757.
Taken in the same sequence, the figures for `OCCOCCOCCN1CCC(=C(c2ccccc2)c2ccccc2)CC1` [Pipoxizine] were inactive: 0.611, inactive: -0.962 and inactive: -0.96.
Regarding `CC1(C)[C@H]2CC[C@@H](CNC(=O)c3cccnc3)[C@@H]1C2`, the TEAD-luciferase reporter activity (compound concentration: 200 nM) was inactive: -0.594 and the TEAD-luciferase reporter activity (compound concentration: 10 uM) was inactive: -0.201.
Regarding `O[C@@](Cc1ncc(CC2(C(F)(F)F)CC2)[nH]1)(c1ccc(-n2cccn2)cc1)C(F)(F)F`, the TEAD-luciferase reporter activity was inactive: -0.407 (compound concentration: 200 nM), inactive: 0.569 (compound concentration: 2 uM) and inactive: -1.57 (compound concentration: 10 uM).
For the compound `CN(C)Cc1nccn1-c1ccc(NC(=O)c2cc(C(F)(F)F)nn2-c2ccc3onc(N)c3c2)c(F)c1` [Razaxaban hydrochloride], the TEAD-luciferase reporter activity (compound concentration: 200 nM) was inactive: -2.78 and the TEAD-luciferase reporter activity (compound concentration: 10 uM) was inactive: 1.24.
`CC1(C)OC2[C@@H](CO[C@@]3(COS(N)(=O)=O)OC(C)(C)O[C@@H]23)O1` (stereo partly specified) [topiramate]: the TEAD-luciferase reporter activity (compound concentration: 200 nM) is inactive: 1.7, the TEAD-luciferase reporter activity (compound concentration: 2 uM) was inactive: -0.511 and the TEAD-luciferase reporter activity (compound concentration: 10 uM) was inactive: 3.49.
For `CCOC(=O)c1nc(=O)c2cc3cc(OC)c(OC)cc3nc2[nH]1` the same measures were inactive: 1.02, inactive: 4.11 and inactive: 2.78.
Turning to `CCCOc1ccc2c(c1)[C@@H](c1ccc(OC)cc1OCC(=O)O)[C@H](C(=O)O)[C@H]2c1ccc2c(c1)OCO2`, the TEAD-luciferase reporter activity by setting is: (compound concentration: 200 nM) inactive: -1.67; (compound concentration: 2 uM) inactive: -0.246; (compound concentration: 10 uM) inactive: -0.674.
Taken in the same sequence, the figures for `CCOC(=O)c1cc(NC(=O)c2cccs2)ccc1OCC(O)CNC(C)(C)C` (stereo unspecified) were inactive: -0.835, inactive: -1.37 and inactive: -0.434.
Taken in the same sequence, the figures for `CSCC(=O)NC[C@H]1CN(c2ccc(N3CCOCC3)c(F)c2)C(=O)O1` were inactive: -1.05, inactive: -1.54 and inactive: -0.491.
For `O=c1cc(-c2nnn[nH]2)oc2c(/C=C/c3ccc(OCCCCc4ccc(F)cc4)cc3)cccc12` the same measures were inactive: -0.947, inactive: -0.751 and inactive: 2.86.
For `COc1ccc(C(=O)Nc2c(Cl)cncc2Cl)cc1OC1CCCC1` [Piclamilast], the TEAD-luciferase reporter activity by setting is: (compound concentration: 200 nM) inactive: -1.45; (compound concentration: 2 uM) inactive: -1.69; (compound concentration: 10 uM) inactive: 1.78.
Regarding `CCCCC(C(=O)O)C(=O)N(Nc1ccccc1)c1ccccc1` (stereo unspecified), the TEAD-luciferase reporter activity was inactive: -1.74 (compound concentration: 200 nM), inactive: -1.7 (compound concentration: 2 uM) and inactive: 0.824 (compound concentration: 10 uM).
Taken in the same sequence, the figures for `CCN(CC)CCNC(=O)c1ccc(N)c(Cl)c1` [Declopramide] were inactive: -1.25, inactive: -0.378 and inactive: 1.23.
Taken in the same sequence, the figures for `COC(=O)C1=C(C)NC(C)=C(C(=O)OCCN2CCN(C(c3ccccc3)c3ccccc3)CC2)C1c1ccccc1` (stereo unspecified) [analog of manidipine] were inactive: 1.11, inactive: -1.32 and inactive: 0.207.
Taken in the same sequence, the figures for `CCOC(=O)C1=C(C)NC(C)=C(C(=O)OCC)C1c1cccc2nonc12` were inactive: -0.35, inactive: 0.652 and inactive: -0.61.
Take `CC(C)=CCN1Cc2cc(Cl)cc3[nH]c(=S)n(c23)C[C@@H]1C`: the TEAD-luciferase reporter activity was inactive: -0.62 (compound concentration: 200 nM), inactive: -1.69 (compound concentration: 2 uM) and inactive: -1.2 (compound concentration: 10 uM).
Regarding `COc1ccc(C(=O)/C(Cc2cc(OC)c(OC)c(OC)c2)=C(\C(=O)O)c2ccc3c(c2)OCO3)cc1`, the TEAD-luciferase reporter activity is inactive: -1.8 (compound concentration: 200 nM), active: 9.18 (compound concentration: 2 uM) and active: 13.1 (compound concentration: 10 uM).
Taken in the same sequence, the figures for `CC(C)(C)c1cc(/C=C2\CCOC2=O)cc(C(C)(C)C)c1O` were inactive: -2.22, inactive: -0.72 and inactive: -0.307.
